These are yes or no findings as the source states them, for the method shown. In cells and extracts the contact can be indirect. Some results given as binding are weak or reduced against the parent protein; the word gives no strength.
Key:
[1] = target: T1, FOXP3 (exogenous, expression construct) (UniProt Q99JB6); test: co-IP; HEK 293T cells transiently transfected with expression constructs; lysate (NETN300 buffer) on anti-FLAG M2 beads or anti-HA beads, 4°C overnight; washed with 100 mM NaCl IP buffer; western blot with anti-Flag and anti-HA
T1 sequence: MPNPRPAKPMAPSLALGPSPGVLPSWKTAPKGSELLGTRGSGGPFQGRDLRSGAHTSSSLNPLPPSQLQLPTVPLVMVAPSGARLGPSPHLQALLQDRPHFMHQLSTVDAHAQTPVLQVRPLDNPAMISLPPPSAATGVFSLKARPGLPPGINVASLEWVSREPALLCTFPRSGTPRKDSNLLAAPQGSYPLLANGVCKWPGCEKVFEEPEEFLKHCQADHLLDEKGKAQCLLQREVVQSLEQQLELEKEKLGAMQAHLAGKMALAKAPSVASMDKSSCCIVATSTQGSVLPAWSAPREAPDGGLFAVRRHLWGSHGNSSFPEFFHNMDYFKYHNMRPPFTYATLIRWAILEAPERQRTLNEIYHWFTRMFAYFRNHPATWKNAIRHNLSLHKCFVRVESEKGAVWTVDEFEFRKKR

Sequences of proteins named here, by UniProt entry; tags and fusion partners are left off.
UniProt Q9CWW7: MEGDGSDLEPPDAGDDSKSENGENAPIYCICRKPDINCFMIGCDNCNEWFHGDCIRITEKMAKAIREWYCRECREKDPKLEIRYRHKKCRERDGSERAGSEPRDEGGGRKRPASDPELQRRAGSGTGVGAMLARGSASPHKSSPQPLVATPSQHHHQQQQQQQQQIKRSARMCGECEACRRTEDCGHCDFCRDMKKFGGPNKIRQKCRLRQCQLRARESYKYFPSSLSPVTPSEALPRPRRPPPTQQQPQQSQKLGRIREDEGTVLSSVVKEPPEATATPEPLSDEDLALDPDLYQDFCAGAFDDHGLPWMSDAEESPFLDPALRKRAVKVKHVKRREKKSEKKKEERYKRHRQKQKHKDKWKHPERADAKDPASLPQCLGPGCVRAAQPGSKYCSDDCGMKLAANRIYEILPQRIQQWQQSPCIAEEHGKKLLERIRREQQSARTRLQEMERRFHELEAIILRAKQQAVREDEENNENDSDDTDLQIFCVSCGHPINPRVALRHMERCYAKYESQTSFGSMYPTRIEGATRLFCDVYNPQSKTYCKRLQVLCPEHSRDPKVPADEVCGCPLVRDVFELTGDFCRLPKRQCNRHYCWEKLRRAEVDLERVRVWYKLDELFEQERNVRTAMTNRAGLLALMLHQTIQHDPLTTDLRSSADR

[2] = target: T2, FOXP3 (mouse (endogenous in Treg cells)) (UniProt Q99JB6); test: co-IP; endogenous proteins, Treg cell lysates (NETN300 buffer, 300 mM NaCl, 0.5% NP-40, pH 8.0); protein G magnetic beads with anti-CXXC1 or anti-FOXP3 antibody, 4°C overnight; washed with 100 mM NaCl IP buffer; forward and reverse; western blot
T2 sequence: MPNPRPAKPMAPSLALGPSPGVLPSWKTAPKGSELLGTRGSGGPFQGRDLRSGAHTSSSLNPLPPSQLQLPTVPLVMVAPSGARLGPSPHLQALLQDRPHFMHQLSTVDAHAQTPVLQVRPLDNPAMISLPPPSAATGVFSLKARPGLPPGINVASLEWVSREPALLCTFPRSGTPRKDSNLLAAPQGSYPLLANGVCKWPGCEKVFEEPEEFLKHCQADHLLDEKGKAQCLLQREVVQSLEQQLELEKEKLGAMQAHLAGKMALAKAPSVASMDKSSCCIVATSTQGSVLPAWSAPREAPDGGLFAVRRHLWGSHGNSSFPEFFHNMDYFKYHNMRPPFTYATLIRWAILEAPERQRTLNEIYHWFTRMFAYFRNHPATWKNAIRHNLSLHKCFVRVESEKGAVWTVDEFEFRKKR

[3] = target: CXXC-finger protein 1 (mouse (endogenous in Treg cells)) (UniProt Q9CWW7); test: as above
[4] = target: CXXC1 (exogenous, expression construct) (UniProt Q9CWW7); test: co-IP; HEK 293T cells transiently transfected with expression constructs; lysate (NETN300 buffer) on anti-FLAG M2 beads or anti-HA beads, 4°C overnight; washed with 100 mM NaCl IP buffer; western blot with anti-Flag and anti-HA

CXXC1 (exogenous, expression construct) (from UniProt Q9CWW7 1-660)
binding [1]: binds

CXXC-finger protein 1 (from UniProt Q9CWW7 1-660)
binding [2]: binds

B1: FOXP3 (protein, UniProt Q99JB6 1-417)
chain: MPNPRPAKPMAPSLALGPSPGVLPSWKTAPKGSELLGTRGSGGPFQGRDLRSGAHTSSSLNPLPPSQLQLPTVPLVMVAPSGARLGPSPHLQALLQDRPHFMHQLSTVDAHAQTPVLQVRPLDNPAMISLPPPSAATGVFSLKARPGLPPGINVASLEWVSREPALLCTFPRSGTPRKDSNLLAAPQGSYPLLANGVCKWPGCEKVFEEPEEFLKHCQADHLLDEKGKAQCLLQREVVQSLEQQLELEKEKLGAMQAHLAGKMALAKAPSVASMDKSSCCIVATSTQGSVLPAWSAPREAPDGGLFAVRRHLWGSHGNSSFPEFFHNMDYFKYHNMRPPFTYATLIRWAILEAPERQRTLNEIYHWFTRMFAYFRNHPATWKNAIRHNLSLHKCFVRVESEKGAVWTVDEFEFRKKR
binding [3]: binds

B2: FOXP3 (exogenous, expression construct) (protein, UniProt Q99JB6 1-417)
chain: MPNPRPAKPMAPSLALGPSPGVLPSWKTAPKGSELLGTRGSGGPFQGRDLRSGAHTSSSLNPLPPSQLQLPTVPLVMVAPSGARLGPSPHLQALLQDRPHFMHQLSTVDAHAQTPVLQVRPLDNPAMISLPPPSAATGVFSLKARPGLPPGINVASLEWVSREPALLCTFPRSGTPRKDSNLLAAPQGSYPLLANGVCKWPGCEKVFEEPEEFLKHCQADHLLDEKGKAQCLLQREVVQSLEQQLELEKEKLGAMQAHLAGKMALAKAPSVASMDKSSCCIVATSTQGSVLPAWSAPREAPDGGLFAVRRHLWGSHGNSSFPEFFHNMDYFKYHNMRPPFTYATLIRWAILEAPERQRTLNEIYHWFTRMFAYFRNHPATWKNAIRHNLSLHKCFVRVESEKGAVWTVDEFEFRKKR
binding [4]: binds
